Source: PMC4866751, “Bacillus licheniformis Contains Two More PerR-Like Proteins in Addition to PerR, Fur, and Zur Orthologues” (PLoS ONE, 2016)
These are yes or no findings as the source states them, for the method shown. Where a sequence is shown, tags or fusion partners need not be part of it.

Target: His-tagged PerR3 (BL00950) (Bacillus licheniformis ATCC14580) (UniProt Q65DD7)
Experiment: SEC; Superdex 200 HiLoad 16/60 gel filtration, Chelex-100-treated buffer A (20 mM Tris-HCl, pH 8.0, 0.1 M NaCl, 5% glycerol); oligomeric state judged by elution profile in the last purification step; both purified

B1: His-tagged PerR3 (BL00950) (protein, UniProt Q65DD7 1-138)
chain: MEDEQLVPLLKKRGLRITAQRVLILKTIASLGGHPSAEDIHRELPYMSLPTIYSNLKLFVKLGILKELSHGDAKSKYELFTSQHYHVICKSCGKIADLDYPHLKEVEHAAAQLTNFKVNSHFLGIYGICTTCQEQQQR
- binding: no binding
